Source: the supplement of paper PMC6078165
± gives the standard deviation of the averaged measurements. The reference is the same well before dosing, and untreated signal decays as well.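 Fibroblast labels name human fibroblasts: mostly primary ones from tissues such as uterus (C12385, HUF), lung (H6013), bone (Hs27A), adrenal (HADF) and skin (WS1), plus mammary HMF and breast cancer-associated Hs343T. The cancer cells are basal-like or mesenchymal-like triple-negative breast cancer lines. The paper calls a changed response a hit when it shifts by more than 3x the replicate standard deviation. The tissue of the other fibroblasts is not given here.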

System: MDAMB231
Experiment: relative JC-1 red fluorescence (viability) vs pre-drug, coculture with fibroblast (fraction); higher = more viable cancer cells
Protocol: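 JC-1 labelled TNBC cells cocultured 1:1 (1,500 cells each) with CellTrace Violet stained primary or stromal fibroblasts in 384-well plates in FluoroBrite medium, treated with one of 42 anticancer drugs at 0.1, 1, 10 or 100 uM. JC-1 red fluorescence (mitochondrial integrity in cancer cells only) was read by plate reader every 8 h for 72 h. Values are normalised to each well's pre-drug value. The stock of one drug was tenfold lower, so its dose labels may be too high.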

CC[C@]1(O)C[C@@H]2CN(CCc3c([nH]c4ccccc34)[C@@](C(=O)OC)(c3cc4c(cc3OC)N(C)[C@H]3[C@@](O)(C(=O)OC)[C@H](OC(C)=O)[C@]5(CC)C=CCN6CC[C@]43[C@@H]65)C2)C1 [Vinblastine]
relative JC-1 red fluorescence
Conditions | 8 h | 16 h | 24 h | 32 h | 40 h | 48 h | 56 h | 64 h | 72 h
10 µM, coculture fibroblast: C12385 | 0.7053 ± 0.0067 | 0.7137 ± 0.0059 | 0.6012 ± 0.0015 | 0.64 ± 0.03 | 0.583 ± 0.037 | 0.553 ± 0.049 | 0.506 ± 0.042 | 0.492 ± 0.036 | 0.463 ± 0.046
10 µM, coculture fibroblast: H6013 | 0.874 ± 0.011 | 0.848 ± 0.013 | 0.819 ± 0.021 | 0.8 ± 0.024 | 0.756 ± 0.029 | 0.723 ± 0.029 | 0.706 ± 0.036 | 0.683 ± 0.025 | 0.652 ± 0.039
10 µM, coculture fibroblast: H6019 | 0.749 ± 0.0082 | 0.7036 ± 0.0047 | 0.637 ± 0.02 | 0.646 ± 0.028 | 0.603 ± 0.046 | 0.581 ± 0.023 | 0.563 ± 0.029 | 0.565 ± 0.022 | 0.547 ± 0.022
10 µM, coculture fibroblast: H6076 | 0.889 ± 0.02 | 0.874 ± 0.0099 | 0.827 ± 0.024 | 0.803 ± 0.032 | 0.759 ± 0.046 | 0.732 ± 0.058 | 0.691 ± 0.063 | 0.659 ± 0.061 | 0.653 ± 0.061
10 µM, coculture fibroblast: H6231 | 0.88328 ± 0.00075 | 0.8248 ± 0.0073 | 0.768 ± 0.013 | 0.731 ± 0.017 | 0.692 ± 0.02 | 0.669 ± 0.031 | 0.637 ± 0.046 | 0.621 ± 0.054 | 0.592 ± 0.066
10 µM, coculture fibroblast: HADF | 0.8838 ± 0.0054 | 0.861 ± 0.029 | 0.835 ± 0.02 | 0.814 ± 0.021 | 0.768 ± 0.0091 | 0.714 ± 0.0076 | 0.7073 ± 0.0046 | 0.6904 ± 0.004 | 0.63 ± 0.0077
10 µM, coculture fibroblast: HCFa | 0.889 ± 0.018 | 0.8639 ± 0.0078 | 0.844 ± 0.026 | 0.823 ± 0.015 | 0.764 ± 0.029 | 0.707 ± 0.035 | 0.698 ± 0.046 | 0.659 ± 0.049 | 0.624 ± 0.039
10 µM, coculture fibroblast: HCPF | 0.898 ± 0.036 | 0.845 ± 0.024 | 0.8001 ± 0.0073 | 0.7803 ± 0.0068 | 0.738 ± 0.02 | 0.709 ± 0.026 | 0.672 ± 0.033 | 0.635 ± 0.034 | 0.604 ± 0.051
10 µM, coculture fibroblast: HHSteC | 0.8907 ± 0.0042 | 0.8992 ± 0.0014 | 0.8612 ± 0.0023 | 0.8221 ± 0.0014 | 0.7886 ± 0.0061 | 0.7489 ± 0.0025 | 0.7086 ± 0.0034 | 0.688 ± 0.013 | 0.641 ± 0.029
10 µM, coculture fibroblast: HMF | 0.905 ± 0.014 | 0.857 ± 0.017 | 0.8123 ± 0.0016 | 0.7736 ± 0.0032 | 0.7311 ± 0.0028 | 0.6856 ± 0.00052 | 0.6552 ± 0.0048 | 0.631 ± 0.0088 | 0.601 ± 0.026
10 µM, coculture fibroblast: HPFa | 0.93009 ± 0.00048 | 0.916 ± 0.02 | 0.867 ± 0.034 | 0.812 ± 0.021 | 0.804 ± 0.033 | 0.76 ± 0.034 | 0.7 ± 0.013 | 0.68 ± 0.024 | 0.638 ± 0.018
10 µM, coculture fibroblast: HUF | 0.841 ± 0.064 | 0.773 ± 0.093 | 0.815 ± 0.11 | 0.733 ± 0.14 | 0.69 ± 0.15 | 0.673 ± 0.16 | 0.627 ± 0.15 | 0.625 ± 0.14 | 0.607 ± 0.14
10 µM, coculture fibroblast: Hs5 | 0.907 ± 0.024 | 0.8782 ± 0.0059 | 0.82896 ± 0.00066 | 0.7878 ± 0.0052 | 0.7416 ± 0.007 | 0.689 ± 0.016 | 0.633 ± 0.0074 | 0.597 ± 0.006 | 0.557 ± 0.012
10 µM, coculture fibroblast: Hs27A | 0.893 ± 0.015 | 0.857 ± 0.033 | 0.829 ± 0.049 | 0.817 ± 0.077 | 0.775 ± 0.088 | 0.706 ± 0.084 | 0.737 ± 0.11 | 0.736 ± 0.11 | 0.701 ± 0.13
10 µM, coculture fibroblast: Hs343T | 0.914 ± 0.073 | 0.869 ± 0.085 | 0.81 ± 0.08 | 0.778 ± 0.078 | 0.724 ± 0.1 | 0.689 ± 0.11 | 0.633 ± 0.11 | 0.6 ± 0.095 | 0.561 ± 0.079
10 µM, coculture fibroblast: WS1 | 0.719 ± 0.029 | 0.722 ± 0.056 | 0.588 ± 0.038 | 0.612 ± 0.082 | 0.567 ± 0.081 | 0.524 ± 0.068 | 0.471 ± 0.067 | 0.451 ± 0.062 | 0.423 ± 0.061
100 µM, coculture fibroblast: C12385 | 0.654 ± 0.043 | 0.635 ± 0.02 | 0.391 ± 0.024 | 0.238 ± 0.048 | 0.105 ± 0.04 | 0.0709 ± 0.049 | 0.0445 ± 0.05 | 0.0391 ± 0.053 | 0.0321 ± 0.043
100 µM, coculture fibroblast: H6013 | 0.925 ± 0.021 | 0.798 ± 0.015 | 0.525 ± 0.06 | 0.299 ± 0.054 | 0.196 ± 0.031 | 0.168 ± 0.029 | 0.129 ± 0.026 | 0.107 ± 0.021 | 0.071 ± 0.015
100 µM, coculture fibroblast: H6019 | 0.689 ± 0.031 | 0.5876 ± 0.00091 | 0.42 ± 0.034 | 0.269 ± 0.038 | 0.174 ± 0.032 | 0.13 ± 0.011 | 0.0863 ± 0.0083 | 0.0794 ± 0.0061 | 0.0567 ± 0.0053
100 µM, coculture fibroblast: H6076 | 0.943 ± 0.034 | 0.758 ± 0.049 | 0.547 ± 0.097 | 0.445 ± 0.11 | 0.365 ± 0.15 | 0.324 ± 0.14 | 0.283 ± 0.14 | 0.249 ± 0.13 | 0.227 ± 0.12
100 µM, coculture fibroblast: H6231 | 0.905 ± 0.13 | 0.91 ± 0.013 | 0.743 ± 0.044 | 0.592 ± 0.075 | 0.383 ± 0.12 | 0.28 ± 0.082 | 0.198 ± 0.067 | 0.175 ± 0.069 | 0.144 ± 0.063
100 µM, coculture fibroblast: HADF | 0.963 ± 0.01 | 0.882 ± 0.0087 | 0.7 ± 0.0097 | 0.399 ± 0.019 | 0.218 ± 0.015 | 0.175 ± 0.0027 | 0.129 ± 0.0049 | 0.111 ± 0.0048 | 0.0703 ± 0.0045
100 µM, coculture fibroblast: HCFa | 0.952 ± 0.0097 | 0.8999 ± 0.0053 | 0.8274 ± 0.0073 | 0.615 ± 0.027 | 0.348 ± 0.056 | 0.263 ± 0.058 | 0.199 ± 0.049 | 0.172 ± 0.05 | 0.132 ± 0.043
100 µM, coculture fibroblast: HCPF | 0.952 ± 0.031 | 0.792 ± 0.046 | 0.591 ± 0.016 | 0.463 ± 0.072 | 0.322 ± 0.079 | 0.254 ± 0.059 | 0.219 ± 0.052 | 0.182 ± 0.049 | 0.156 ± 0.047
100 µM, coculture fibroblast: HHSteC | 0.942 ± 0.019 | 0.8756 ± 0.0064 | 0.686 ± 0.025 | 0.396 ± 0.029 | 0.243 ± 0.0073 | 0.202 ± 0.012 | 0.151 ± 0.0083 | 0.131 ± 0.0087 | 0.0939 ± 0.0072
100 µM, coculture fibroblast: HMF | 0.756 ± 0.039 | 0.929 ± 0.044 | 0.66 ± 0.026 | 0.503 ± 0.019 | 0.329 ± 0.005 | 0.252 ± 0.015 | 0.185 ± 0.03 | 0.157 ± 0.027 | 0.126 ± 0.024
100 µM, coculture fibroblast: HPFa | 0.959 ± 0.015 | 0.932 ± 0.02 | 0.782 ± 0.018 | 0.511 ± 0.0094 | 0.355 ± 0.028 | 0.301 ± 0.028 | 0.238 ± 0.025 | 0.21 ± 0.019 | 0.169 ± 0.015
100 µM, coculture fibroblast: HUF | 0.759 ± 0.015 | 0.692 ± 0.058 | 0.572 ± 0.084 | 0.38 ± 0.066 | 0.252 ± 0.061 | 0.208 ± 0.052 | 0.154 ± 0.053 | 0.137 ± 0.045 | 0.115 ± 0.045
100 µM, coculture fibroblast: Hs5 | 0.953 ± 0.06 | 0.766 ± 0.09 | 0.578 ± 0.049 | 0.445 ± 0.0069 | 0.3336 ± 0.00088 | 0.258 ± 0.021 | 0.208 ± 0.017 | 0.17 ± 0.016 | 0.144 ± 0.013
100 µM, coculture fibroblast: Hs27A | 0.933 ± 0.038 | 0.922 ± 0.07 | 0.869 ± 0.054 | 0.559 ± 0.015 | 0.339 ± 0.044 | 0.285 ± 0.023 | 0.239 ± 0.02 | 0.209 ± 0.024 | 0.165 ± 0.018
100 µM, coculture fibroblast: Hs343T | 0.776 ± 0.014 | 0.955 ± 0.033 | 0.6904 ± 0.0053 | 0.548 ± 0.039 | 0.387 ± 0.023 | 0.309 ± 0.012 | 0.249 ± 0.0053 | 0.223 ± 0.0045 | 0.1934 ± 0.0018
100 µM, coculture fibroblast: WS1 | 0.706 ± 0.023 | 0.642 ± 0.067 | 0.324 ± 0.055 | 0.138 ± 0.051 | 0.066 ± 0.037 | 0.0351 ± 0.029 | 0.0366 ± 0.018 | 0.0286 ± 0.013 | 0.0239 ± 0.028
